## Microarray screen: hit calls

Targets, with sequences 5′ to 3′:
PreQ1: PreQ1 riboswitch RNA pseudoknot, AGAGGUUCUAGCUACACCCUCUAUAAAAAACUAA. From B. subtilis. Hit rate about 0.7% of about 24,000 compounds.
SAM-II: SAM-II riboswitch RNA pseudoknot, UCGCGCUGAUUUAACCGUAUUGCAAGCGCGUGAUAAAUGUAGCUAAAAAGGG. Hit rate about 1% of about 21,000 compounds.
TPP: TPP riboswitch RNA three-way junction, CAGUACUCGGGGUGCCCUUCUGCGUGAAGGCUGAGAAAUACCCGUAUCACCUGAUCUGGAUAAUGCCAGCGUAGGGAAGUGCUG. Hit rate about 0.7% of about 24,000 compounds.

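Each compound is printed as two spots on a slide made to bind it covalently, so it has no test concentration; the read-out is fluorescence of the bound, labelled oligonucleotide. For the PreQ1, TPP and SAM-II riboswitches the laboratory earlier reported (doi:10.1038/s41467-019-09493-3) 1 µM RNA, 2 h, and a rule that included a mean Z-score above 3 (spot signal-to-noise against the whole library), a score well above that on a control array, and duplicate spots agreeing (coefficient of variation under 100). The data file gives only the calls; its cut-offs may differ, and compounds hitting several targets are kept. A missing hit is not proof of no binding, and a hit is not a measured affinity.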 Key: active = hit, inactive = tested without a hit. The compounds are a random part of those screened. A target missing from an entry has no call listed here.

- Nc1ccc(Sc2c3c(nc4nc(-c5ccco5)nn24)CCC3)cc1 | PreQ1: inactive; SAM-II: inactive; TPP: inactive
- Cn1c(=O)c2nc(N)[nH]c2n(C)c1=O | PreQ1: inactive; SAM-II: inactive; TPP: inactive
- CC(C)OC(=O)c1sc2nc3c(cc2c1N)CN(C)CC3 | PreQ1: inactive; SAM-II: inactive; TPP: inactive
- Cc1ccc(C=NNC(=O)c2ccccc2Oc2ccccc2)o1 | PreQ1: inactive; SAM-II: inactive; TPP: inactive
- Cc1nn(C)c2ncnc(NC(CO)c3ccc(F)cc3)c12 (stereo unspecified) | PreQ1: inactive; SAM-II: inactive; TPP: inactive
- CCN(C(=O)Nc1ccc(-c2ccccc2OC)cc1)[C@H]1COC[C@@H]1O | PreQ1: inactive; SAM-II: inactive; TPP: inactive
- CCOC(=O)c1cnc(-c2ccccc2)nc1NCCO | PreQ1: inactive; SAM-II: inactive; TPP: inactive
- COc1ccnc2[nH]cc(C(=O)C(=O)N3CCN(C(=O)c4ccccc4)C[C@@H]3C)c12 | PreQ1: inactive; SAM-II: inactive; TPP: inactive
- Cc1cc2cccc(NC(=O)N3CCN[C@H]4CS(=O)(=O)C[C@H]43)c2o1 | PreQ1: inactive; SAM-II: inactive; TPP: inactive
- Cc1ccccc1NC(=O)Cn1nnc(C(=O)Nc2ccccc2F)c1N | PreQ1: inactive; SAM-II: inactive; TPP: inactive
- Cc1ccc(NC(=O)c2nnn(CC(=O)Nc3cccc(Cl)c3C)c2N)cc1C | PreQ1: inactive; SAM-II: inactive; TPP: inactive
- CCOc1ccc(-c2cc(-c3ccc(OC)nc3)nc(N)c2C#N)cc1CO | PreQ1: inactive; SAM-II: inactive; TPP: inactive
- OCc1ccccc1-c1nccc(C(F)(F)F)n1 | PreQ1: inactive; SAM-II: inactive; TPP: inactive
- CCNc1ccnc(-c2ccc(F)c(CO)c2)n1 | PreQ1: inactive; SAM-II: inactive; TPP: inactive
- OCc1ccc(-c2nccn2CC2OCCc3ccccc32)o1 (stereo unspecified) | PreQ1: inactive; SAM-II: inactive; TPP: inactive
- COc1ccc(-c2ccnc(N)c2)c(OC)c1 | PreQ1: inactive; SAM-II: inactive; TPP: inactive
- COc1ccc(CNc2nc(-c3ccccc3)cc(C(F)(F)F)n2)cc1 | PreQ1: inactive; SAM-II: inactive; TPP: inactive
- Cc1ccc(C(=O)OC2CC(n3cc(C)c(=O)[nH]c3=O)OC2CO)cc1 (stereo unspecified) | PreQ1: inactive; SAM-II: inactive; TPP: inactive
- CC(C)c1cc(NC2COC3(CCCC3)C2)nc(N)n1 (stereo unspecified) | PreQ1: inactive; SAM-II: inactive; TPP: inactive
- Cc1ccccc1-c1noc(-c2nnn(-c3ccc(F)cc3F)c2N)n1 | PreQ1: inactive; TPP: inactive
- CCc1cc(CN(C)C(=O)c2cnc3c(c2)nc(N)n3CC)on1 | PreQ1: inactive; SAM-II: inactive; TPP: inactive
- CN(Cc1ccc(-n2cccn2)cc1)Cc1cccc(CCN)c1 | PreQ1: inactive; SAM-II: inactive; TPP: inactive
- Cn1ccnc1CN(CCO)C(=O)c1ccc2cccc(F)c2n1 | PreQ1: inactive; SAM-II: inactive; TPP: inactive
- OCCOc1cccc(CN2CCCN(c3ccc(F)cc3)CC2)c1 | PreQ1: inactive; SAM-II: inactive; TPP: inactive
- OCC1(CCCc2ccccc2)CCCNC1 (stereo unspecified) | PreQ1: inactive; SAM-II: inactive; TPP: inactive
- COC(=O)CCCCCNc1cc(C)nc2nc(-c3ccc(Cl)cc3)nn12 | PreQ1: inactive; TPP: inactive
- CN(CCOc1ccccc1)C(=O)[C@H](N)c1ccccc1 | PreQ1: inactive; SAM-II: inactive; TPP: inactive
- CCOc1ccc(CCNc2nc3ccccc3c3nnc(C)n23)cc1OCC | PreQ1: inactive; TPP: inactive
- CC(=O)N1C(Nc2ccccc2)CC(C)N1c1ccccc1 (stereo unspecified) | PreQ1: inactive; SAM-II: inactive; TPP: inactive
- O=C(CO)N1CCc2cc(S(=O)(=O)NC3CCOC3)ccc2C1 (stereo unspecified) | PreQ1: inactive; SAM-II: inactive; TPP: inactive
- Cc1cc(N2CCC(N[C@@H]3C[C@@H](CO)N(C)C3)CC2)nc(-c2ccccc2)n1 | PreQ1: inactive; SAM-II: inactive; TPP: inactive
- CCOCCc1c(O)[nH]c(SC)nc1=O | PreQ1: inactive; SAM-II: inactive; TPP: inactive
- O=C(c1ccccn1)C1CCCN(C2CCC3(CCNCC3)CC2)C1 (stereo unspecified) | PreQ1: inactive; SAM-II: inactive; TPP: inactive

Some entries from above, unchanged:

SMILES,PreQ1,SAM-II,TPP
Cc1cc2cccc(NC(=O)N3CCN[C@H]4CS(=O)(=O)C[C@H]43)c2o1,inactive,inactive,inactive
O=C(c1ccccn1)C1CCCN(C2CCC3(CCNCC3)CC2)C1 (stereo unspecified),inactive,inactive,inactive
CC(C)c1cc(NC2COC3(CCCC3)C2)nc(N)n1 (stereo unspecified),inactive,inactive,inactive
Nc1ccc(Sc2c3c(nc4nc(-c5ccco5)nn24)CCC3)cc1,inactive,inactive,inactive

Calls as published in the ROBIN set (doi:10.1002/anie.202211358).